In publication PMC3661532:
Results are given in words; binding and its absence hold for the method and conditions named. In cells and extracts the contact can be indirect. Some results given as binding are weak or reduced against the parent protein; the word gives no strength.

T1: Kindlin 2 (Fermitin family homolog 2) (mouse (endogenous in C2C12)) (UniProt Q8CIB5)
T1 sequence: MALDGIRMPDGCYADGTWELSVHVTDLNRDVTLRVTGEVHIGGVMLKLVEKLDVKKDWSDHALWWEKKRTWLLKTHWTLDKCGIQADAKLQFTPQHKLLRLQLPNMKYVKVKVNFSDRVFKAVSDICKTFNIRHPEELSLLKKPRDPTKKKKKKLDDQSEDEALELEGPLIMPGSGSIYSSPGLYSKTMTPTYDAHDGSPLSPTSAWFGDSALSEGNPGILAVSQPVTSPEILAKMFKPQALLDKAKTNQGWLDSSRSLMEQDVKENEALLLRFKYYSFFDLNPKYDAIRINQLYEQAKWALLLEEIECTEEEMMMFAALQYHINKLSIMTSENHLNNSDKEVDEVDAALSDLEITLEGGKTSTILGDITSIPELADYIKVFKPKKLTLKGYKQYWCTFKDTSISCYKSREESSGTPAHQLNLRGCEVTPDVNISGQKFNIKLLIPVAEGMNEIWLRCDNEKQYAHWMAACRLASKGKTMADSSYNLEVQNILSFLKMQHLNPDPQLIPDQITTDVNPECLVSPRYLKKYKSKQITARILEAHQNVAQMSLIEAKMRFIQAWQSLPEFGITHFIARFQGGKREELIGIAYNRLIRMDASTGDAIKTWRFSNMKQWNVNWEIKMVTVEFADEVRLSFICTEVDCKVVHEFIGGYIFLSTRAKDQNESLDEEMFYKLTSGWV

T2: TCF4 (mouse (endogenous in C2C12)), Q924A0
T2 chain: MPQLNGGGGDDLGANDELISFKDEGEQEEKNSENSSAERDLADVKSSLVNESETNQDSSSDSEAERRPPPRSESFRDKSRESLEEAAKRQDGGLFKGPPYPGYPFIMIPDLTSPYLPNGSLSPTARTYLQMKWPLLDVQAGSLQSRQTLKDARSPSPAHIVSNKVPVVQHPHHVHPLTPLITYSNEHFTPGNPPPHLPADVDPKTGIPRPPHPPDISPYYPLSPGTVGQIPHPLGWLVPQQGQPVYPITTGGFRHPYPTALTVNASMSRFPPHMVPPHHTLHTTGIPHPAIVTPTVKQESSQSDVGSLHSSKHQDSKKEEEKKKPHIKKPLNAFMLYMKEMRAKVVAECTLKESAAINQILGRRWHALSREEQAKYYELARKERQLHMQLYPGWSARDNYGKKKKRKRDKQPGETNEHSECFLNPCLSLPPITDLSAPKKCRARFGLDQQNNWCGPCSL


How the values were obtained:
[1] = biological target: T1, Kindlin 2 (Fermitin family homolog 2) (mouse (endogenous in C2C12)); experiment: co-IP; nuclear lysates of differentiated C2C12 cells (DM day 3); immunoprecipitation with anti-TCF4, anti-Kindlin 2 or anti-active β-catenin; Western blot
[2] = biological target: T1, Kindlin 2 (Fermitin family homolog 2) (mouse (endogenous in C2C12)); experiment: co-IP; total cell lysates of differentiated C2C12 cells (DM day 3); antibody 4 h at 4°C, protein A/G-Sepharose overnight, three washes with NP40 buffer; Western blot
[3] = biological target: T2, TCF4 (mouse (endogenous in C2C12)), …; experiment: co-IP; nuclear lysates of differentiated C2C12 cells (DM day 3); immunoprecipitation with anti-TCF4, anti-Kindlin 2 or anti-active β-catenin; Western blot; details: remark: other sources report otherwise

Molecule | binding [1] | binding [2] | binding [3]
TCF4 (from UniProt Q924A0 1-459) | binds | – | –
active β-catenin (from UniProt Q02248 1-781) | binds | binds | –
β-catenin (from UniProt Q02248 1-781) | – | binds | –
active β-catenin, Q02248 1-781 (protein) MATQADLMELDMAMEPDRKAAVSHWQQQSYLDSGIHSGATTTAPSLSGKGNPEEEDVDTSQVLYEWEQGFSQSFTQEQVADIDGQYAMTRAQRVRAAMFPETLDEGMQIPSTQFDAAHPTNVQRLAEPSQMLKHAVVNLINYQDDAELATRAIPELTKLLNDEDQVVVNKAAVMVHQLSKKEASRHAIMRSPQMVSAIVRTMQNTNDVETARCTAGTLHNLSHHREGLLAIFKSGGIPALVKMLGSPVDSVLFYAITTLHNLLLHQEGAKMAVRLAGGLQKMVALLNKTNVKFLAITTDCLQILAYGNQESKLIILASGGPQALVNIMRTYTYEKLLWTTSRVLKVLSVCSSNKPAIVEAGGMQALGLHLTDPSQRLVQNCLWTLRNLSDAATKQEGMEGLLGTLVQLLGSDDINVVTCAAGILSNLTCNNYKNKMMVCQVGGIEALVRTVLRAGDREDITEPAICALRHLTSRHQEAEMAQNAVRLHYGLPVVVKLLHPPSHWPLIKATVGLIRNLALCPANHAPLREQGAIPRLVQLLVRAHQDTQRRTSMGGTQQQFVEGVRMEEIVEGCTGALHILARDVHNRIVIRGLNTIPLFVQLLYSPIENIQRVAAGVLCELAQDKEAAEAIEAEGATAPLTELLHSRNEGVATYAAAVLFRMSEDKPQDYKKRLSVELTSSLFRTEPMAWNETADLGLDIGAQGEALGYRQDDPSYRSFHSGGYGQDALGMDPMMEHEMGGHHPGADYPVDGLPDLGHAQDLMDGLPPGDSNQLAWFDTDL | – | – | binds
